{"sequences": {"note": "By UniProt entry, the sequences of proteins in these tests, tags left out. Where a name states a change or a piece, a line headed by the entry shows the natural chain unless it says otherwise. Chains listed by the source or under a name are the forms on record and can include a tag or linker.", "endogenous myosin VI of RPE cells (Q9UM54-1, form named)": "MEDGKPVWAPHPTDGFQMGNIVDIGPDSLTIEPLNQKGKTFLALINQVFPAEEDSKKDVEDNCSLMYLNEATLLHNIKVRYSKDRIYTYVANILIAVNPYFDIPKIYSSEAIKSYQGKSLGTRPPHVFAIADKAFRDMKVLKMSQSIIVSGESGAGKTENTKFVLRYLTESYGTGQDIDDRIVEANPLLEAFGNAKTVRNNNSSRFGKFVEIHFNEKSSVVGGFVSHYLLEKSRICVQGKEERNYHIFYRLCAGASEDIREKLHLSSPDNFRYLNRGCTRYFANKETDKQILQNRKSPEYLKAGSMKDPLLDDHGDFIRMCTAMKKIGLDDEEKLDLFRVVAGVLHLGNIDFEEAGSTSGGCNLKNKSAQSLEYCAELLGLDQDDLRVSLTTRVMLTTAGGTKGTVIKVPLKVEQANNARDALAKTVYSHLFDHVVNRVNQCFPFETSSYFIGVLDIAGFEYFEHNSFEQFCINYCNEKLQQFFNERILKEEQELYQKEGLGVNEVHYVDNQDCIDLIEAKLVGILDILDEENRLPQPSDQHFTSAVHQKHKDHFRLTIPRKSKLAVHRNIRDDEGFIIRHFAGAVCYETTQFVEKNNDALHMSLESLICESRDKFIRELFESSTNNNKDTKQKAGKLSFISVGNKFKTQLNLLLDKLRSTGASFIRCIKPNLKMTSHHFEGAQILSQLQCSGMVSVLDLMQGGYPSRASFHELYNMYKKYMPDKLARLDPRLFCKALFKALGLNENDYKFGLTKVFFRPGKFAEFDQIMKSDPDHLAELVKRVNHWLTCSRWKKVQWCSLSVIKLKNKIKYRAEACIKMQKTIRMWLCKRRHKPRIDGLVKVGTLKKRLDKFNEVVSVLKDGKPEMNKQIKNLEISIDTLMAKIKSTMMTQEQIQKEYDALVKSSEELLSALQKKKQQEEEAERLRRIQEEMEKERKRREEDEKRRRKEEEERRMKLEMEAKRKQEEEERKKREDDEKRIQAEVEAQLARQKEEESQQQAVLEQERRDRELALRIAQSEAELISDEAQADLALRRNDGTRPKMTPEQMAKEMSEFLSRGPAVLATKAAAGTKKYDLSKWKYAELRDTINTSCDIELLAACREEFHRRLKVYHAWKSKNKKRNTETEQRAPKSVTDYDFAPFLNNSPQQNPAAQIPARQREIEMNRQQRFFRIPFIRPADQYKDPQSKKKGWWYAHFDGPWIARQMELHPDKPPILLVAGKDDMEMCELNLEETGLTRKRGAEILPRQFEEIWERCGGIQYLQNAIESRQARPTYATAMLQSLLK"}, "source": "paper PMC5074368", "key": {"[1]": {"target": "GFP-Tom1 W423A/L424A (UniProt O60784)", "assay": "co-IP; RPE cells transfected with GFP-Tom1 WT or W423A/L424A; GFP immunoprecipitation; western blots with antibodies to myosin VI, GFP and Tollip"}, "[2]": {"target": "GFP-Tom1 WT (UniProt O60784)", "assay": "co-IP; RPE cells transfected with GFP-Tom1 WT or W423A/L424A; GFP immunoprecipitation; western blots with antibodies to myosin VI, GFP and Tollip"}}, "note": "Results are given in words; binding and its absence hold for the method and conditions named. In cells and extracts the contact can be indirect. Some entries that bind do so weakly or less than the wild type."}
{"substance": "endogenous myosin VI of RPE cells (from UniProt Q9UM54-1 1-1285)", "values": [{"measurement": "binding", "setting": "[1]", "value": "no binding"}, {"measurement": "binding", "setting": "[2]", "value": "binds"}]}
